Screening data, single-dose tests

The chains behind the UniProt entries cited, without tags or fusion partners.
UniProt P9WPC5, whole entry: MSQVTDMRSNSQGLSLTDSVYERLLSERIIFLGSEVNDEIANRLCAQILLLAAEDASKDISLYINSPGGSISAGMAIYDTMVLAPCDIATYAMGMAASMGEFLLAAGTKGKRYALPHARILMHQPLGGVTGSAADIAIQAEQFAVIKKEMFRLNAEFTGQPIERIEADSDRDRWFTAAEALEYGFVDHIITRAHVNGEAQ
UniProt P9WPC3, whole entry partner: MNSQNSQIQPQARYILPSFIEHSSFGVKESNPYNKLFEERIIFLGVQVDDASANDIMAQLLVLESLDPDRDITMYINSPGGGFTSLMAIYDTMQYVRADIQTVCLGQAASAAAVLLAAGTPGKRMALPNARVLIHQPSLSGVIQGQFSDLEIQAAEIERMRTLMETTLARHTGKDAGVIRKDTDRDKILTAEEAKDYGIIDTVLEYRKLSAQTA
UniProt P9WNZ1, whole entry: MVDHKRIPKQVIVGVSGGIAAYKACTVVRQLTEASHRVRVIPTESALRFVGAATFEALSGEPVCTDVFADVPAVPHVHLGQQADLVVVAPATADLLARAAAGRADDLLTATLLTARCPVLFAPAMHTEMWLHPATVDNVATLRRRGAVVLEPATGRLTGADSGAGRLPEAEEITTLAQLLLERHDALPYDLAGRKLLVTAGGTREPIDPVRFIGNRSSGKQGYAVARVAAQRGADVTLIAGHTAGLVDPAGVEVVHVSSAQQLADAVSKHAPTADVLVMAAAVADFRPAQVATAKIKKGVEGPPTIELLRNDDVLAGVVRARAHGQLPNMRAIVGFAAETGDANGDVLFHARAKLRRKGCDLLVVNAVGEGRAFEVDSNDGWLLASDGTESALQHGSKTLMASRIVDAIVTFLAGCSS

Measurements from “University of Dundee, Small-Polar-MMV Screening Library” (2021), ChEMBL document CHEMBL3988442.

ClpP1P2: 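Protease assay of ClpP1P2, read by the AMC dye that it sets free. Target: ClpP1P2, Mycobacterium tuberculosis (UniProt P9WPC5 and UniProt P9WPC3). Compounds at 50 µM. Direction is inferred from only a few compounds that gave an IC50; most scored high, so higher reads as stronger inhibition. Most other retested compounds had strongly negative values. About 69,000 compounds were tested under these conditions; 0.015% (about 10) showed 50% or more at least once.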
CoaBC: 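Coenzyme A biosynthesis protein CoaBC, Mycobacterium tuberculosis (UniProt P9WNZ1). Enzyme assay of CoaBC with a phosphate dye (Biomol Green) read at 650 nm. Compounds at 30 µM. Higher reads as stronger inhibition, judged from the few compounds that gave an IC50. Most strong results did not repeat in a second test. Of about 67,000 compounds tested this way, about 40 (0.06%) reached 50% or more in at least one test.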
Toxoplasma: 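Assay of Toxoplasma gondii numbers, read through their beta-galactosidase reporter with a colour substrate. Concentration: 10 µM. Higher reads as fewer parasites (inferred from which compounds were picked for retests). Size under these conditions: about 67,000 compounds, about 260 of them at 50% or above in at least one test.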

Each number is a percent effect as filed. The controls that fix the scale are not given in the record; negative values are as filed. This is an unselected part of the compounds tested. A dash means the value is not listed here; it may have been measured.

Compound,ClpP1P2,CoaBC,Toxoplasma
Cc1c(C(C)N)cnn1-c1cccc2ccccc12 (stereo unspecified),-3.018,1.141,6.596
CCN1CCOC(CNCc2cccc(OCc3ccccn3)c2)C1 (stereo unspecified),-1.64,-29.17,1.637
CCN(CCO)C[C@@H]1CN(C(=O)c2sc3ccccc3c2C)C[C@@H]1CO,0.275,-0.1233,-28.77
COc1ccccc1S(=O)(=O)NCC(c1cccn1C)N(C)C (stereo unspecified),-6.934,2.122,1.222
Cc1cc(C#N)ccc1S(=O)(=O)NCc1cnc(N(C)C)n1C,-2.97,-5.952,0.911
Cn1ccnc1C(=O)N1CCC2(CCN2CC2CC2)C1.O=C(O)C(F)(F)F (stereo unspecified),-,-,-9.543
Cc1ncn(-c2cc(N3CCN(S(C)(=O)=O)CC3)ncn2)c1C,2.754,-2.521,-4.93
Cc1nc(CN2CCCC(Cn3cncn3)C2)no1 (stereo unspecified),0.8093,3.354,-3.665
Fc1ccc2[nH]c3c(c2c1)CCN1C(c2ccncc2)N2CCC31CC2 (stereo unspecified),6.857,-8.221,33.8
Cc1csc(CNC(=O)NCc2ccc3c(c2)OCCO3)n1,0.7989,8.423,4.053
CCC1CN(C(=O)c2ccc(O)cn2)CCC(=O)N1Cc1ccccc1 (stereo unspecified),-20.43,3.273,0.7692
Cc1n[nH]c(C)c1-c1cnc(C2CCN(S(C)(=O)=O)CC2)cn1,-0.6864,-5.576,-29.25
O=C(C1CCC1)N1CCC2(CCCN2CC2CC2)CC1,15.61,0.4706,-
CC1CCN(C(=O)C2CCN(S(C)(=O)=O)CC2)c2ccccc21 (stereo unspecified),-3.117,-0.2475,-11.93
CCCNC(=O)[C@@H]1CCCN1[C@@H](C(=O)NC)C1CC1.Cl,-,-,-2.651
CCc1noc(C)c1C(=O)N1CCCC1Cn1nc(C)cc1C (stereo unspecified),3.272,1.503,-4.331
CN(C)C[C@H]1OC[C@@H]2CCN(C(=O)c3ccco3)C[C@@H]21,-9.645,6.167,-
O=C(CCNS(=O)(=O)c1cccnc1)N1CCOC(c2ccccc2)C1 (stereo unspecified),-2.102,8.104,-1.239
O=C(NCCSc1ccccc1)[C@H]1CNC[C@@H](C(=O)N2CCOCC2)C1,-9.483,-25.32,-48.63
COC(=O)N1CCCC(NC(=O)NCc2cccc(C)n2)C1 (stereo unspecified),-9.038,-0.6242,10.63
CCn1ncc(Br)c1CN(C)S(=O)(=O)c1ccc(C)cc1,11.76,8.508,-5.381
O=C(O)C(F)(F)F.[H][C@@]12C[C@@H](C)O[C@]1([H])CN(S(=O)(=O)c1c(C)nn(C)c1C)C2,-,-,-5.806
CN(C)C(=O)NCc1nnn2c1CN(CC1CCOCC1)CCC2,-1.386,0.6536,-
CSc1ccccc1CC1CCCS(=O)(=O)C1 (stereo unspecified),-6.624,-5.652,-0.06242
Cc1cccc(N2CCC3(CCCN3Cc3cnn(C)c3C)CC2)n1,8.743,10,-1.848
O=C(NCC1CCCCO1)c1ccc(-c2cccs2)[nH]c1=O (stereo unspecified),-14.05,8.264,-4.472
CC(=O)N1CCCN(C(=O)NCCOc2ccc3c(c2)OCO3)CC1,-13.95,6.452,9.04
CC1c2ncc(COCC3CCOCC3)n2CCN1S(C)(=O)=O (stereo unspecified),1.554,-6.25,-8.35
Cc1nncn1CCNC(=O)C1SCCc2sccc21 (stereo unspecified),12.53,-3.828,2.032
COCC1CN(C(=O)CS(C)(=O)=O)Cc2ncn(CC3CC3)c21 (stereo unspecified),-9.13,-9.877,-21.02
CC(=O)NCC(=O)N1CCn2cc(CN3CCCCC3)nc2C1.O=C(O)C(F)(F)F,-,-,10.1
CC(C)Cc1nc(CCn2cncn2)n(-c2ccc3c(c2)OCCO3)n1,10.47,-0.2296,6.034
[H][C@@]12OCCC[C@]1([H])N(C(N)=O)C[C@@H]2NC(=O)c1cscn1,-,-,2.369
c1cnn(CC2CCCCN2Cc2noc(C3CC3)n2)c1 (stereo unspecified),-18.37,4.436,6.394
COc1ncccc1CNC(=O)Nc1cccnc1N1CCCC1,-25.29,-1.746,35.49
CC(=O)c1cccc(NC(=O)Cn2cnc(-c3ccccc3)cc2=O)c1,11.79,9.091,4.247
COCc1nn(C(C)C)c2c1CCN(Cc1ccccn1)C2.O=C(O)C(F)(F)F.O=C(O)C(F)(F)F,-,-,9.985
CCC(=O)N1CCc2[nH]cnc2C12CCN(C1CCOCC1)CC2,-6.031,-0.4545,10.28
Cc1ccc(NC2(C(=O)NCCCc3c(C)n[nH]c3C)CCCC2)cc1,3.853,3.64,-7.717
CCC(Nc1ccc(Oc2ccc(C#N)cc2OC)cc1)C(N)=O (stereo unspecified),3.017,14.11,3.001
CCOC1COC2(CCN(CC3CCOCC3)CC2)C1 (stereo unspecified),1.38,-2.847,-
Cc1ccc(C)n1C(C)C(=O)N1CCCN(Cc2cscn2)CC1 (stereo unspecified),-10.55,-2.046,-12.98
Cc1cccc(-c2ccc(C(=O)N3CCN(C4CC4)CC3)c(=O)[nH]2)c1,0.5602,-29.69,12.33
COc1ccc(F)c(CN2CCCC3(CCN(C4CCOCC4)C3)C2)c1 (stereo unspecified),-13.62,-16.8,-4.28
[H][C@@]12CCN(C(=O)c3sccc3S(N)(=O)=O)C[C@@]([H])(CC1)N2C,-,-,1.187
CC(C)C(NC(=O)N1CCS(=O)(=O)CC1)c1ccccc1Cl (stereo unspecified),8.023,-6.935,10.39
CNC(=O)c1cc(NC(=O)NC2CC2)ccc1F,6.771,4.28,-2.045
Cc1nn(C)cc1NC(=O)CN1CCC(Oc2cnccn2)CC1,-12.27,2.85,-
Cc1noc(C)c1CNC(=O)C1(NS(C)(=O)=O)CCCCC1,-6.111,-0.2457,8.815
COCCCNC(=O)Nc1cc(-c2ccccc2C)nn1CCO,-20.87,-0.7317,0.7379
COc1ccccc1C(C)NC(=O)N1CCN(Cc2ccc(Br)s2)CC1 (stereo unspecified),-0.2504,-,-0.863

The last 3 entries again:

{"compound": "Cc1noc(C)c1CNC(=O)C1(NS(C)(=O)=O)CCCCC1", "ClpP1P2": -6.111, "CoaBC": -0.2457, "Toxoplasma": 8.815}
{"compound": "COCCCNC(=O)Nc1cc(-c2ccccc2C)nn1CCO", "ClpP1P2": -20.87, "CoaBC": -0.7317, "Toxoplasma": 0.7379}
{"compound": "COc1ccccc1C(C)NC(=O)N1CCN(Cc2ccc(Br)s2)CC1", "stereo": "stereo unspecified", "ClpP1P2": -0.2504, "Toxoplasma": -0.863}